# Results: the supplement of paper PMC8728848
# This is one part of the list.
# B1: PX14343I-pdi-501-30-501 (Parabacteroides distasonis) (protein)
# chain: SDQYSTETFWKTKEHASAGIMGCYNALKLWRSLHTMEFDMLTANAMPYNEANGTQAIGKGEHLSTTALIGSLWKNCYVGIGRTNTFIANVGGVDMDESEKAKMVGEAKFLRAFYYLSLVDKFGGVPLIIDAPNADEQAELPRNSKEEVVNQIVKDLEEAAAVLPDTYASSDLGRATKGAALALKARTLLYNSRWAEAAQAAKQVMESGVYQLFNDYRHFFSEDNKYNCEVIFDIEAKLPEYPTDYDQNIWRLNRPAPLKELVDTYLCVDGKTIEESPLYDPTRPYENRDPRLLKSIVCIGYPYLGKTITKEDVATTGFGVKKYTSYEDDVTIPLVERSAFNFILIRYAEVLLTYAEAQNEASGPDQSVYDAINQLRRRPDINMPEVPKGLTKDQMREVIRRERRIELTFEGLYYSDILRWKTAEKENNGMMHNYEGIEVVKRSFNPKRDYLWPIPYNQTVLNPNLEQNPNWD
# Legend:
# Assay in all cases: glycan array binding signal (z-score within array); higher = stronger binding
# Settings in all cases: glycan notation: IUPAC condensed, linker removed
# [1] = target: Gal(b1-3)GlcNAc(b1-6)[Gal(b1-3)]GalNAc
# Summary of the method: (§1)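 Arrays were curated from the Consortium for Functional Glycomics database, 3228 in total, and kept only where the protein sequence was available. Binding is expressed as a within-array Z-score. This score was averaged across arrays of the same protein sequence at different concentrations or buffers and across linkers, and negative values can be read as non-binding.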
# Gal(b1-3)GlcNAc6S = target: Gal(b1-3)GlcNAc6S
# Summary of the method: as §1
# [2] = target: Gal(b1-3)[Fuc(a1-4)]GlcNAc
# Summary of the method: as §1
# [3] = target: Gal(b1-3)[Fuc(a1-4)]GlcNAc(b1-2)Man
# Summary of the method: as §1
# [4] = target: Gal(b1-3)[Fuc(a1-4)]GlcNAc(b1-2)Man(a1-3)[Gal(b1-3)[Fuc(a1-4)]GlcNAc(b1-2)Man(a1-6)]Man(b1-4)GlcNAc(b1-4)[Fuc(a1-6)]GlcNAc
# Summary of the method: as §1
# [5] = target: Gal(b1-3)[Fuc(a1-4)]GlcNAc(b1-3)Gal(b1-3)[Fuc(a1-4)]GlcNAc
# Summary of the method: as §1
# [6] = target: Gal(b1-3)[Fuc(a1-4)]GlcNAc(b1-3)Gal(b1-4)[Fuc(a1-3)]GlcNAc
# Summary of the method: as §1
# [7] = target: Gal(b1-3)[Fuc(a1-4)]GlcNAc(b1-6)GalNAc
# Summary of the method: as §1
# [8] = target: Gal(b1-3)[GlcNAc(b1-6)]GalNAc
# Summary of the method: as §1
# [9] = target: Gal(b1-3)[Neu5Ac(a2-6)]GalNAc
# Summary of the method: as §1
# [10] = target: Gal(b1-3)[Neu5Ac(a2-6)]GlcNAc(b1-4)Gal(b1-4)Glc
# Summary of the method: as §1
# [11] = target: Gal(b1-3)[Neu5Ac(b2-6)]GalNAc
# Summary of the method: as §1
# Gal(b1-4)Gal = target: Gal(b1-4)Gal
# Summary of the method: as §1
# [12] = target: Gal(b1-4)GalNAc(a1-3)[Fuc(a1-2)]Gal(b1-4)GlcNAc
# Summary of the method: as §1
# [13] = target: Gal(b1-4)GalNAc(b1-3)[Fuc(a1-2)]Gal(b1-4)GlcNAc
# Summary of the method: as §1
# Gal(b1-4)Glc = target: Gal(b1-4)Glc
# Summary of the method: as §1
# Gal(b1-4)Glc6S = target: Gal(b1-4)Glc6S
# Summary of the method: as §1
# Gal(b1-4)GlcNAc = target: Gal(b1-4)GlcNAc
# Summary of the method: as §1
# [14] = target: Gal(b1-4)GlcNAc(a1-6)Gal(b1-4)GlcNAc
# Summary of the method: as §1
# Gal(b1-4)GlcNAc(b1-2)Man = target: Gal(b1-4)GlcNAc(b1-2)Man
# Summary of the method: as §1
# [15] = target: Gal(b1-4)GlcNAc(b1-2)Man(a1-3)Man(b1-4)GlcNAc(b1-4)GlcNAc
# Summary of the method: as §1
# [16] = target: Gal(b1-4)GlcNAc(b1-2)Man(a1-3)[Gal(b1-4)GlcNAc(b1-2)Man(a1-6)]Man(b1-4)GlcNAc(b1-4)GlcNAc
# Summary of the method: as §1
# [17] = target: Gal(b1-4)GlcNAc(b1-2)Man(a1-3)[Gal(b1-4)GlcNAc(b1-2)Man(a1-6)]Man(b1-4)GlcNAc(b1-4)[Fuc(a1-6)]GlcNAc
# Summary of the method: as §1
# [18] = target: Gal(b1-4)GlcNAc(b1-2)Man(a1-3)[Gal(b1-4)GlcNAc(b1-2)Man(a1-6)][Gal(b1-4)GlcNAc(b1-4)]Man(b1-4)GlcNAc(b1-4)[Fuc(a1-6)]GlcNAc
# Summary of the method: as §1
# [19] = target: Gal(b1-4)GlcNAc(b1-2)Man(a1-3)[Gal(b1-4)GlcNAc(b1-2)Man(a1-6)][GlcNAc(b1-4)]Man(b1-4)GlcNAc(b1-4)[Fuc(a1-6)]GlcNAc
# Summary of the method: as §1
# [20] = target: Gal(b1-4)GlcNAc(b1-2)Man(a1-3)[GlcNAc(b1-2)Man(a1-6)]Man(b1-4)GlcNAc(b1-4)GlcNAc
# Summary of the method: as §1
# [21] = target: Gal(b1-4)GlcNAc(b1-2)Man(a1-3)[GlcNAc(b1-4)][Gal(b1-4)GlcNAc(b1-2)Man(a1-6)]Man(b1-4)GlcNAc(b1-4)GlcNAc
# Summary of the method: as §1
# [22] = target: Gal(b1-4)GlcNAc(b1-2)Man(a1-3)[Man(a1-6)]Man(b1-4)GlcNAc(b1-4)GlcNAc
# Summary of the method: as §1
# [23] = target: Gal(b1-4)GlcNAc(b1-2)Man(a1-6)Man(b1-4)GlcNAc(b1-4)GlcNAc
# Summary of the method: as §1
# [24] = target: Gal(b1-4)GlcNAc(b1-2)Man(a1-6)[GlcNAc(b1-2)Man(a1-3)]Man(b1-4)GlcNAc(b1-4)GlcNAc
# Summary of the method: as §1
# [25] = target: Gal(b1-4)GlcNAc(b1-2)Man(a1-6)[Man(a1-3)]Man(b1-4)GlcNAc(b1-4)GlcNAc
# Summary of the method: as §1
# [26] = target: Gal(b1-4)GlcNAc(b1-2)[Gal(b1-4)GlcNAc(b1-4)]Man(a1-3)[Gal(b1-4)GlcNAc(b1-2)Man(a1-6)]Man(b1-4)GlcNAc(b1-4)GlcNAc
# Summary of the method: as §1
# [27] = target: Gal(b1-4)GlcNAc(b1-2)[Gal(b1-4)GlcNAc(b1-4)]Man(a1-3)[Gal(b1-4)GlcNAc(b1-2)[Gal(b1-4)GlcNAc(b1-6)]Man(a1-6)]Man(b1-4)GlcNAc(b1-4)GlcNAc
# Summary of the method: as §1
# [28] = target: Gal(b1-4)GlcNAc(b1-2)[Gal(b1-4)GlcNAc(b1-4)]Man(a1-3)[GlcNAc(b1-4)][Gal(b1-4)GlcNAc(b1-2)Man(a1-6)]Man(b1-4)GlcNAc(b1-4)GlcNAc
# Summary of the method: as §1
# [29] = target: Gal(b1-4)GlcNAc(b1-2)[Gal(b1-4)GlcNAc(b1-4)]Man(a1-3)[GlcNAc(b1-4)][Gal(b1-4)GlcNAc(b1-2)[Gal(b1-4)GlcNAc(b1-6)]Man(a1-6)]Man(b1-4)GlcNAc(b1-4)GlcNAc
# Summary of the method: as §1
# [30] = target: Gal(b1-4)GlcNAc(b1-2)[Gal(b1-4)GlcNAc(b1-6)]Man(a1-6)[Gal(b1-4)GlcNAc(b1-2)Man(a1-3)]Man(b1-4)GlcNAc(b1-4)GlcNAc
# Summary of the method: as §1
# [31] = target: Gal(b1-4)GlcNAc(b1-2)[Gal(b1-4)GlcNAc(b1-6)]Man(a1-6)[Gal(b1-4)GlcNAc(b1-2)Man(a1-3)]Man(b1-4)GlcNAc(b1-4)[Fuc(a1-6)]GlcNAc
# Summary of the method: as §1
binder,measurement,setting,value
B1,glycan array binding signal (z-score),[1],-0.404
same,glycan array binding signal (z-score),Gal(b1-3)GlcNAc6S,-0.118
same,glycan array binding signal (z-score),[2],-0.327
same,glycan array binding signal (z-score),[3],0.532
same,glycan array binding signal (z-score),[4],1.6
same,glycan array binding signal (z-score),[5],0.204
same,glycan array binding signal (z-score),[6],0.906
same,glycan array binding signal (z-score),[7],-0.2
same,glycan array binding signal (z-score),[8],-0.042
same,glycan array binding signal (z-score),[9],-0.636
same,glycan array binding signal (z-score),[10],0.19
same,glycan array binding signal (z-score),[11],-1.25
same,glycan array binding signal (z-score),Gal(b1-4)Gal,0.618
same,glycan array binding signal (z-score),[12],-0.249
same,glycan array binding signal (z-score),[13],-0.377
same,glycan array binding signal (z-score),Gal(b1-4)Glc,-0.376
same,glycan array binding signal (z-score),Gal(b1-4)Glc6S,0.235
same,glycan array binding signal (z-score),Gal(b1-4)GlcNAc,0.888
same,glycan array binding signal (z-score),[14],-0.593
same,glycan array binding signal (z-score),Gal(b1-4)GlcNAc(b1-2)Man,0.196
same,glycan array binding signal (z-score),[15],-0.542
same,glycan array binding signal (z-score),[16],-0.373
same,glycan array binding signal (z-score),[17],-0.561
same,glycan array binding signal (z-score),[18],1.06
same,glycan array binding signal (z-score),[19],-0.864
same,glycan array binding signal (z-score),[20],-0.685
same,glycan array binding signal (z-score),[21],-0.521
same,glycan array binding signal (z-score),[22],-0.562
same,glycan array binding signal (z-score),[23],-0.03
same,glycan array binding signal (z-score),[24],-0.651
same,glycan array binding signal (z-score),[25],0.204
same,glycan array binding signal (z-score),[26],-0.319
same,glycan array binding signal (z-score),[27],-0.615
same,glycan array binding signal (z-score),[28],-0.449
same,glycan array binding signal (z-score),[29],-0.407
same,glycan array binding signal (z-score),[30],0.762
same,glycan array binding signal (z-score),[31],1.14

# 3 successive records already listed, for reference:
binder,measurement,setting,value
B1,glycan array binding signal (z-score),Gal(b1-4)GlcNAc(b1-2)Man,0.196
same,glycan array binding signal (z-score),[15],-0.542
same,glycan array binding signal (z-score),[16],-0.373
